Test results taken from PMC6575207.
These are yes or no findings as the source states them, for the method shown. Binding seen in cells or lysates may run through a third protein. Some binding calls cover weakened binding; strength is not graded here. Where a sequence is shown, tags or fusion partners need not be part of it.

Biological target: T1, TAP-tagged IRF9, Q00978
T1 chain: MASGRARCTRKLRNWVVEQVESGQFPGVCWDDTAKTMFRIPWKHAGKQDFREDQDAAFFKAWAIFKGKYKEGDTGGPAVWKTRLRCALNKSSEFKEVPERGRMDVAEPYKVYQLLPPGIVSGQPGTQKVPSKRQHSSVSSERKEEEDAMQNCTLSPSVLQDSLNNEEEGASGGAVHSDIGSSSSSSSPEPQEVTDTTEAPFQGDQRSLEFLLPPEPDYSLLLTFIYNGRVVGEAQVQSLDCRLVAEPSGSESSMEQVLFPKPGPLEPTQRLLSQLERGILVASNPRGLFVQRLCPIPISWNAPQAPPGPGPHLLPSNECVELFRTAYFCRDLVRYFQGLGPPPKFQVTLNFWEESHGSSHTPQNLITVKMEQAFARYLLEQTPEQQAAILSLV
Experiment: co-IP; HEK-293T cotransfected with TAP-tagged IRF9 and HA-tagged STAT1 or STAT2 or FLAG-tagged HDAC1 or HDAC4, 24 h; lysates precipitated via the streptavidin-epitope; immunoblot (Fig. 5D)
Conditions: remark: other sources report otherwise

B1: HA-tagged STAT1, P42224 1-750 (protein)
chain: MSQWYELQQLDSKFLEQVHQLYDDSFPMEIRQYLAQWLEKQDWEHAANDVSFATIRFHDLLSQLDDQYSRFSLENNFLLQHNIRKSKRNLQDNFQEDPIQMSMIIYSCLKEERKILENAQRFNQAQSGNIQSTVMLDKQKELDSKVRNVKDKVMCIEHEIKSLEDLQDEYDFKCKTLQNREHETNGVAKSDQKQEQLLLKKMYLMLDNKRKEVVHKIIELLNVTELTQNALINDELVEWKRRQQSACIGGPPNACLDQLQNWFTIVAESLQQVRQQLKKLEELEQKYTYEHDPITKNKQVLWDRTFSLFQQLIQSSFVVERQPCMPTHPQRPLVLKTGVQFTVKLRLLVKLQELNYNLKVKVLFDKDVNERNTVKGFRKFNILGTHTKVMNMEESTNGSLAAEFRHLQLKEQKNAGTRTNEGPLIVTEELHSLSFETQLCQPGLVIDLETTSLPVVVISNVSQLPSGWASILWYNMLVAEPRNLSFFLTPPCARWAQLSEVLSWQFSSVTKRGLNVDQLNMLGEKLLGPNASPDGLIPWTRFCKENINDKNFPFWLWIESILELIKKHLLPLWNDGCIMGFISKERERALLKDQQPGTFLLRFSESSREGAITFTWVERSQNGGEPDFHAVEPYTKKELSAVTFPDIIRNYKVMAAENIPENPLKYLYPNIDKDHAFGKYYSRPKEAPEPMELDGPKGTGYIKTELISVSEVHPSRLQTTDNLLPMSPEEFDEVSRIVGSVEFDSMMNTV
- binding: binds
